From PubChem BioAssay AID493014 (National Center for Advancing Translational Sciences (NCATS), 2011)
Hit rate of the full screen: of about 340,000 compounds, about 170 (0.05%) were called active. Inconclusive means that the source gave no clear call. Such entries were picked first, then a sample of the others. Calls come from the whole dose curve; as a rule, active = well fitted inhibition curve with a large enough effect in the signal ratio, with a control signal flat (not every such curve was filed as active); inconclusive = small, poorly fitted or top-dose-only effect, or effect the other way, or a change in a side signal; inactive = flat fitted curve, though single readings scatter; the % refers to the signal ratio. Potencies beside an inconclusive call are fits to weak or partial responses and may not hold up.

Assay: qHTS Assay to Find Inhibitors of Chronic Active B-Cell Receptor Signaling;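 for activity change, negative = inhibition: plate controls were basal doxycycline-induced cells for no effect and cells given 10 µM MG132 for full effect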
Conditions: ABC-DLBCL IkBa-CBG/CBR reporter, luminescence ratio (green luciferase fused to IkBa over red control in TMD8 lymphoma cells), 4 h; activity change, negative = inhibition: at 46.1 µM (top of the series)
How it was run: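 Doxycycline induced both beetle luciferases in TMD8 lymphoma cells; IKK-driven degradation limits the IkappaBalpha-fused green signal, while red luminescence normalises for cell number and nonspecific effects. Compounds tested up to 46 uM, 4 hrs.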
Potency is the fitted concentration of half-maximal effect.

SMILES	activity change, negative = inhibition	Potency
CNC(=S)N/N=C/c1c(C)nn(-c2cccc(Cl)c2)c1Cl	inconclusive: 17.8%	
COc1ccccc1-c1cc(C(F)(F)F)nc(S(=O)(=O)CCCC(=O)NCc2ccc(F)cc2)n1	inconclusive: -2.07%	
CCOC(=O)c1ccccc1NC(=O)CSc1cccc[n+]1[O-]	inconclusive: -15.7%	
O=C(Nc1ccc(Cl)cc1)ON=C1CCCC1	inconclusive: 9.51%	
Cc1nn(Cc2ccccc2Cl)c(C)c1NC(=O)c1ccn(C)n1	inactive	
O=C(Cn1cc(SCc2ccc(Cl)cc2)c2ccccc21)N1CCOCC1		inconclusive: 14.6 µM [falling, single point]
CC(CCc1ccccc1)NCc1ccncc1 (stereo not given)	inconclusive: 0.862%	
COc1ccccc1OCCSc1nc2ccccc2c(=O)[nH]1	inactive	
CC(=O)Oc1ccc2c(=O)c(-c3nc4ccccc4s3)coc2c1		inconclusive: 8.91 µM [falling, partial curve]
S=C(Nc1ccc(Oc2ccccc2)cc1)NC1CCCCCC1	inconclusive: -9.3%	
O=C(O)c1ccc(COc2ccc(CO)cc2Cl)cc1		inconclusive: 23.1 µM [falling, partial curve]
Cc1nn(C(C)C(=O)NC2C(=O)N3C(C(=O)O)=C(CSc4nnnn4C)CSC23)cc1Cl (stereo not given)	inconclusive: -24.6%	
N#Cc1cc2c(nc1SCc1ccc(Cl)cc1)CCCC2		inconclusive: 20.6 µM [falling, partial curve]
CC(NC(=O)c1ccc(-c2cc(C(F)(F)F)ccc2Cl)o1)c1ccccc1 (stereo not given)	inconclusive: 0%	
COc1cccc(NC(=S)N(Cc2ccc(Cl)cc2)Cc2ccc(C(=O)O)cc2)c1	inactive	
CC1CCC2(CC1)NC(=O)N(CC(=O)Nc1cccnc1Cl)C2=O (stereo not given)	inconclusive: -3.83%	
Cc1ccccc1NC(=O)CSc1nc(-c2cccs2)nc2cc(=O)[nH]n12	inactive	
CN(C)CCNc1ncnc2sc(-c3ccccc3)cc12	inconclusive: -20.1%	
O=C1CCCC(O)=C1N=Nc1ccc(C(=O)O)cc1		inconclusive: 31.6 µM [rising, single point]
O=C(CSc1ccc(-c2ccc(F)cc2)nn1)N1CCCc2ccccc21	inconclusive: 13.5%	
CCC(OC(=O)c1ccco1)C(=O)NCc1ccc2c(c1)OCO2 (stereo not given)	inactive	
Fc1ccc(-c2nc3n(n2)Cc2ccccc2-3)cc1		inconclusive: 16.4 µM [falling, single point]
CCCS(=O)(=O)n1nc(-c2ccccc2)cc1N	inconclusive: 21.5%	
S=C(NCCCc1ccccc1)Nc1ccc(Cl)cc1	inconclusive: 3.67%	
Cc1ccc(S(=O)(=O)/N=C2/C=C(Sc3ncn[nH]3)C(=O)c3ccccc32)cc1		inconclusive: 1.3 µM [falling, full curve]
Cc1ccc(NC(=O)/C(C#N)=C(\N)C(Cl)(Cl)Cl)nc1		inconclusive: 8.91 µM [falling, partial curve, poor fit]
COCc1cc(=O)n2[nH]c(C)cc2n1	inconclusive: 3.08%	
O=C(CC(=O)Nc1cccc(F)c1)Nc1cccc(F)c1	inconclusive: 5.53%	

In the list so far, two contain a cyano group.
SMILES	activity change, negative = inhibition	Potency
N#Cc1cc2c(nc1SCc1ccc(Cl)cc1)CCCC2		inconclusive: 20.6 µM [falling, partial curve]
Cc1ccc(NC(=O)/C(C#N)=C(\N)C(Cl)(Cl)Cl)nc1		inconclusive: 8.91 µM [falling, partial curve, poor fit]

Going on with the list.

SMILES	activity change, negative = inhibition	Potency
Cc1cc(S(=O)(=O)NCCc2ccccc2)c(C)s1	inactive	
O=C(C1=C[C@H](C2CC2)C[C@H](OCCCCO)O1)N1CCN(Cc2ccc3c(c2)OCO3)CC1	inactive	
O=c1[nH][nH]c2c(N=Cc3ccccc3O)ccc(F)c12	inactive	
COc1cc2c(cc1OC)C(SC)=NC1(CCCC1)C2		inconclusive: 28.2 µM [falling, single point]
Cc1cc(NC(=O)COc2ccc(C)c(C)c2)no1	inconclusive: 3.23%	
O=C(CN1CCCCCC1)Nc1ccc(Br)cc1Br		inconclusive: 29.1 µM [rising, single point]
COC(=O)c1ccc(NC(=O)CCCN2C(=O)NC(C)(C)C2=O)cc1	inconclusive: -3.43%	
O=C(Nc1ccc(NC(=O)c2cccs2)cc1)c1ccc(Br)o1		inconclusive: 8.2 µM [rising, partial curve, poor fit]
COc1ccccc1C(=O)Nc1nc2ccc(S(C)(=O)=O)cc2s1	inconclusive: 18.9%	
CSc1nc2nc3c(cn2n1)C(=O)CC(c1ccccc1)C3 (stereo not given)		inconclusive: 3.66 µM [rising, single point]
O=S(=O)(c1cccc(Cl)c1)n1c(/C=C/c2ccccc2Cl)nc2ccccc21		inconclusive: 15.8 µM [falling, partial curve]
Cc1c(Cl)cccc1NC(=O)CSc1nc(=O)[nH]c2c1CCC2	inactive	
O=[N+]([O-])c1ccc(OCc2cnc(Cl)s2)cc1	inconclusive: -2.79%	
CN(C)c1cccc(C(=O)N/N=C/c2ccsc2)c1	inconclusive: -16.4%	
COc1ccc(CCNC(=O)CCCCn2c(=O)[nH]c3ccccc3c2=O)cc1OC	inconclusive: -11.1%	
Cc1ccc(CNC(=O)C(C)C2Sc3ccccc3NC2=O)cc1 (stereo not given)	inactive	
O=C1Nc2ccccc2N(O)N1c1cc(-c2ccccc2)[nH]n1	inconclusive: -10.9%	
Cc1ccc(CSC2=Nc3ccccc3C3=NC(=O)CN23)cc1	inconclusive: 2.02%	
COc1ccc(NC(=O)c2cc(C)on2)cc1	inactive	
O=C(N/N=C/c1ccc(-c2ccccc2[N+](=O)[O-])o1)c1cccnc1	inconclusive: -21.2%	
N#Cc1c(NC(=O)CSc2nnnn2C2CCCCC2)sc2c1CCCC2	inactive	
CCCCSc1nc2c(cc1C#N)CCC2	inconclusive: 0.0515%	
COc1cc(/C=C2\CCCc3c2nc2ccccc2c3C(=O)O)cc([N+](=O)[O-])c1O	inactive	
COc1cc(C(=O)OCCCc2cc3ccccc3c(=O)o2)cc(OC)c1OC	inconclusive: -0.433%	
N#C/C(=C\c1ccc(-c2ccc(C(=O)O)cc2)o1)C(=O)Nc1ccc(F)cc1		inconclusive: 2.24 µM [falling, partial curve, poor fit]
Cc1ccn2c(=O)nc(SCC(=O)Nc3cccc4ccccc34)nc2c1	inconclusive: -15.2%	
COc1ccc(CNc2ccc(C)cc2)cc1Br	inconclusive: 26.1%	
